Test results as given in PMC9023290.
These are yes or no findings as the source states them, for the method shown. In cells and extracts the contact can be indirect. Some results given as binding are weak or reduced against the parent protein; the word gives no strength. For part of these data: Sequences can lack the tags named with a protein.

Sequences of proteins named here, by UniProt entry; tags and fusion partners are left off.
UniProt P78527: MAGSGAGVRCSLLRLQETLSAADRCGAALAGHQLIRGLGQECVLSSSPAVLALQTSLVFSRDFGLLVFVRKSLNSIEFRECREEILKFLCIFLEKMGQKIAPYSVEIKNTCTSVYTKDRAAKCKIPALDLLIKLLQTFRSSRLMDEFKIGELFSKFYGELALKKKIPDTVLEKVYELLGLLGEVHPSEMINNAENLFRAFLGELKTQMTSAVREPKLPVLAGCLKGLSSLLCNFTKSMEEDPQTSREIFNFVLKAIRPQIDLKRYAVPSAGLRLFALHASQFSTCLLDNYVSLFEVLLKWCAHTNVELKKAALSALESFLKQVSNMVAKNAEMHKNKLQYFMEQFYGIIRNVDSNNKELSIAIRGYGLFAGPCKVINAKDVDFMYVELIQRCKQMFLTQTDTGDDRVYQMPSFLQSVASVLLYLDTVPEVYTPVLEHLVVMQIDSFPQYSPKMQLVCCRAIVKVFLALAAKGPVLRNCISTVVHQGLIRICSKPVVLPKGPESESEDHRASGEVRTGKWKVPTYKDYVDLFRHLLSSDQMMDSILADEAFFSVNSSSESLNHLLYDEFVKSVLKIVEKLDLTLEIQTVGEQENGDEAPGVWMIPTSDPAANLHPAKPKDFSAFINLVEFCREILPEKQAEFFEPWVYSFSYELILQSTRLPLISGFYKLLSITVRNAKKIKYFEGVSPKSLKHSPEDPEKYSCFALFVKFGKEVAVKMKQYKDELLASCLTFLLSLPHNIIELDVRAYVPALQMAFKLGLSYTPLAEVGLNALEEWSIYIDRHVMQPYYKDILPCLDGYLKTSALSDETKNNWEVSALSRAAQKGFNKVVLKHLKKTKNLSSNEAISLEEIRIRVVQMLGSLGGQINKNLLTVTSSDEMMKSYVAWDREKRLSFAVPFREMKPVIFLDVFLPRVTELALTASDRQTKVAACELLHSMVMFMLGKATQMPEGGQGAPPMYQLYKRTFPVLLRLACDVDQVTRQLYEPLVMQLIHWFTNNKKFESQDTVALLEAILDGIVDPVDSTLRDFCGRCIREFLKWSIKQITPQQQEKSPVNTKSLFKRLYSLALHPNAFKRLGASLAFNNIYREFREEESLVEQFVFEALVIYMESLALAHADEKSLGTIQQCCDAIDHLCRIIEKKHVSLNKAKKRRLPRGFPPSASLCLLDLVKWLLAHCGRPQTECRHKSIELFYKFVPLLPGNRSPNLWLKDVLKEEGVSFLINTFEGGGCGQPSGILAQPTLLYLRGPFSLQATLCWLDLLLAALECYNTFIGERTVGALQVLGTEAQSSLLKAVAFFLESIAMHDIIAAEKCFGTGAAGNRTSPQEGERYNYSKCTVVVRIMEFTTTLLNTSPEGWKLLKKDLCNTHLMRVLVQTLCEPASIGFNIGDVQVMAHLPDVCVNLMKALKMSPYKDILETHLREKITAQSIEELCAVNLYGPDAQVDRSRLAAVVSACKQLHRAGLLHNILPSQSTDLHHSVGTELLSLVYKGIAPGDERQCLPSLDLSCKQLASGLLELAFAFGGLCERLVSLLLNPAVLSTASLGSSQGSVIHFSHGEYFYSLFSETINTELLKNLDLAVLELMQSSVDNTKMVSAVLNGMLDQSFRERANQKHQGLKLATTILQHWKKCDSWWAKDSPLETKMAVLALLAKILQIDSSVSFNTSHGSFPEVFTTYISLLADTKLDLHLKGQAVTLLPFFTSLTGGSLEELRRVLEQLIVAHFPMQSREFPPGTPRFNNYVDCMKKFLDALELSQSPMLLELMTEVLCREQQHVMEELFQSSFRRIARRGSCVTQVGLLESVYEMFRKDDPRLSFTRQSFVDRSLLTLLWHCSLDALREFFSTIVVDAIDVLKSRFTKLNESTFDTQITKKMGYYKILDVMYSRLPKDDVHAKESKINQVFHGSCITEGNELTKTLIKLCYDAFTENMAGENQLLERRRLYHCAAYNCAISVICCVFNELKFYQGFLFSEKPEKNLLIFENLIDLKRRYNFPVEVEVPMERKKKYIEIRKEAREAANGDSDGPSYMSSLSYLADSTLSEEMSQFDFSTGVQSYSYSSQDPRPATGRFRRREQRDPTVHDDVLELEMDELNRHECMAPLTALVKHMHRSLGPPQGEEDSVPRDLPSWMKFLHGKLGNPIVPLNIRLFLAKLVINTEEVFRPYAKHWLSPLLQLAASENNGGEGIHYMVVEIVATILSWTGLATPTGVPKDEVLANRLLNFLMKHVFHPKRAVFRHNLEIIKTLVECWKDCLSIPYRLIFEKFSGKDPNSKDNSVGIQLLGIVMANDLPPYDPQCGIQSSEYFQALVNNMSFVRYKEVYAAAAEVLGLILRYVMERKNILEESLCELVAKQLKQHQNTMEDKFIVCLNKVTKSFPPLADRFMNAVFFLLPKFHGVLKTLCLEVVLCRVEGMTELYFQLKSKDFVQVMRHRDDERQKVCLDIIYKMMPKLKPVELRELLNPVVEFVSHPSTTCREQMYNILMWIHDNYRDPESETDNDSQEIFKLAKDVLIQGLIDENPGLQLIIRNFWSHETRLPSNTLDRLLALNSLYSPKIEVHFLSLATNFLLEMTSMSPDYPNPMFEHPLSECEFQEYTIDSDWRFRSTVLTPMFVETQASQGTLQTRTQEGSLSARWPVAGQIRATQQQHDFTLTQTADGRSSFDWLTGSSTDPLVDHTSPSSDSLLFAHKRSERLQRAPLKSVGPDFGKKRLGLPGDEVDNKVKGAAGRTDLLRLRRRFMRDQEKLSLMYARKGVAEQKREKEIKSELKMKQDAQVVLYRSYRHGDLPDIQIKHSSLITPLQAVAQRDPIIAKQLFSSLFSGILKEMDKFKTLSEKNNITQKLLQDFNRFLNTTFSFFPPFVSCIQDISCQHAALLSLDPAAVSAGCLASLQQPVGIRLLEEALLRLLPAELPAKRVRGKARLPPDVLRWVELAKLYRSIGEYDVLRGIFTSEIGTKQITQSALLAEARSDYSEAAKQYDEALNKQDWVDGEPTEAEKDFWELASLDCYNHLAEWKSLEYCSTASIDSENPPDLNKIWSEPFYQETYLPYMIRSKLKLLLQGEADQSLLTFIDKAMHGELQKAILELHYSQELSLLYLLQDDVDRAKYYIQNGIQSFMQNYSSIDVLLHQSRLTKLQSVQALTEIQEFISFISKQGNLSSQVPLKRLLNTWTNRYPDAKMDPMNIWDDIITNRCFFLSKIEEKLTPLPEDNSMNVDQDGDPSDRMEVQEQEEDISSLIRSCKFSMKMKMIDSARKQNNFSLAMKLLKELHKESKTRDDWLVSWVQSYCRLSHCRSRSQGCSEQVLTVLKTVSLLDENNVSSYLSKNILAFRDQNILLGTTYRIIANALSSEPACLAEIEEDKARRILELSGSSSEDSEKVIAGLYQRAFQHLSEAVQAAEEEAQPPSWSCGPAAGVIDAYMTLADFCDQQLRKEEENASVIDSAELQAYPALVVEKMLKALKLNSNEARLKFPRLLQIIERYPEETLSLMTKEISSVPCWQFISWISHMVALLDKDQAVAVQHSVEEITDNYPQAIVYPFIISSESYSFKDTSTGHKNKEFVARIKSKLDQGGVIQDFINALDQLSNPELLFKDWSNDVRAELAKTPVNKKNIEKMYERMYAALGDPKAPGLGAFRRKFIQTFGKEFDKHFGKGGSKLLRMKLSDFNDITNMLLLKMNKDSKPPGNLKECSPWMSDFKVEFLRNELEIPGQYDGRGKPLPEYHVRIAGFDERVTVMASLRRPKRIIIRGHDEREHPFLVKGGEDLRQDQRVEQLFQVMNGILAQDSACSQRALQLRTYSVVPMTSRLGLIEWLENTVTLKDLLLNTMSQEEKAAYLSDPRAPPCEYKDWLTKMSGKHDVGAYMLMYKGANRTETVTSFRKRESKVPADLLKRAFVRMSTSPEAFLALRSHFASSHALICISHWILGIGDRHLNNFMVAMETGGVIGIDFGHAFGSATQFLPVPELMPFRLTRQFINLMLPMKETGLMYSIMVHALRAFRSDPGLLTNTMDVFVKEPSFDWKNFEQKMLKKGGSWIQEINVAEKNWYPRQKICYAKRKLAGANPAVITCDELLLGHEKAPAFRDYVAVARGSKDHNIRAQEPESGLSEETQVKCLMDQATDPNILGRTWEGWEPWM

Columns and labels:
[1] = target: T1, ZMYM2 (construct not stated; Supplementary Figures S2B and S7B) (human) (UniProt Q9UBW7); test: co-IP; IP western blotting of ZMYM2 co-immunoprecipitated proteins (Supplementary Figure S2B); HDAC2 as positive control; construct and cells not told
T1 sequence: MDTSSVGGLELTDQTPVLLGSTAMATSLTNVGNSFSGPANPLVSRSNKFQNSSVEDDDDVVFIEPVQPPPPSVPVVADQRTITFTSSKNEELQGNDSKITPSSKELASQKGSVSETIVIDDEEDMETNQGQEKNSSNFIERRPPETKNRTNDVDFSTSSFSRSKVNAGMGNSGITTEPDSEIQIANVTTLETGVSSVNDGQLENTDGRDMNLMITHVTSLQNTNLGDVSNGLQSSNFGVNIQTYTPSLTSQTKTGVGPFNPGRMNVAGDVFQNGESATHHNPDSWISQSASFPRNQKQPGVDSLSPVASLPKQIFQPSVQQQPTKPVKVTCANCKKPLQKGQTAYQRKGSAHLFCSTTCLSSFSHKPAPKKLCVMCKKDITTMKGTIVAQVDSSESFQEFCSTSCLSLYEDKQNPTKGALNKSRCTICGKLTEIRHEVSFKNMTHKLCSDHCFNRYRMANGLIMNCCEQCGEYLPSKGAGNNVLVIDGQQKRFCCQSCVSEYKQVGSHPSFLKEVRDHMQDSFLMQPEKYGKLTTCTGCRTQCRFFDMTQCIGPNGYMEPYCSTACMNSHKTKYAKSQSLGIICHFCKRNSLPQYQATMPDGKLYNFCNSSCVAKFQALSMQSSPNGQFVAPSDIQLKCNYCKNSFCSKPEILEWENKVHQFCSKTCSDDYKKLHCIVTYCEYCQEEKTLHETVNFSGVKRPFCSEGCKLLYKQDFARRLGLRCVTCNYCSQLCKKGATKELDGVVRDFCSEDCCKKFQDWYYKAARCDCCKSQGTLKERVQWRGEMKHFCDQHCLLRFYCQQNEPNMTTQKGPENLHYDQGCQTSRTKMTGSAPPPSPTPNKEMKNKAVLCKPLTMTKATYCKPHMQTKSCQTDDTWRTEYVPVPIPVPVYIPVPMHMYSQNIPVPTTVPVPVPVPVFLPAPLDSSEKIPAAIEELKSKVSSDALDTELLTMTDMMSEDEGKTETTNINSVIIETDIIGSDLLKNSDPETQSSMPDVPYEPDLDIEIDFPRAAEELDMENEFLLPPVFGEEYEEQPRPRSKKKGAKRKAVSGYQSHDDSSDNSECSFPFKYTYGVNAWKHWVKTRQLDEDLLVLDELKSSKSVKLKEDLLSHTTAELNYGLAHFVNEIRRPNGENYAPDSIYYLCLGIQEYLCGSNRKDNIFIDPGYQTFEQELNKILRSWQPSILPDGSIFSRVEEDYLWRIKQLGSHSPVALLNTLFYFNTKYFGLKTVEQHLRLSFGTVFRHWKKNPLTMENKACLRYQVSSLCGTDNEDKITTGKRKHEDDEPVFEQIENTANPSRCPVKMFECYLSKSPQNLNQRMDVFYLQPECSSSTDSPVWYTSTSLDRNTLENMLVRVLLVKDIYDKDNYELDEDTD

GFP-tagged ZMYM3 (human) = target: T2, GFP-tagged ZMYM3 (human) (UniProt Q14202); test: co-IP; differentially SFB- and GFP-tagged ZMYM2 and ZMYM3 co-expressed in HEK293T; IP with anti-GFP beads (GFP-Trap) overnight at 4°C; NETN lysis buffer with 10 mM MgCl2 and TurboNuclease; western blot
T2 sequence: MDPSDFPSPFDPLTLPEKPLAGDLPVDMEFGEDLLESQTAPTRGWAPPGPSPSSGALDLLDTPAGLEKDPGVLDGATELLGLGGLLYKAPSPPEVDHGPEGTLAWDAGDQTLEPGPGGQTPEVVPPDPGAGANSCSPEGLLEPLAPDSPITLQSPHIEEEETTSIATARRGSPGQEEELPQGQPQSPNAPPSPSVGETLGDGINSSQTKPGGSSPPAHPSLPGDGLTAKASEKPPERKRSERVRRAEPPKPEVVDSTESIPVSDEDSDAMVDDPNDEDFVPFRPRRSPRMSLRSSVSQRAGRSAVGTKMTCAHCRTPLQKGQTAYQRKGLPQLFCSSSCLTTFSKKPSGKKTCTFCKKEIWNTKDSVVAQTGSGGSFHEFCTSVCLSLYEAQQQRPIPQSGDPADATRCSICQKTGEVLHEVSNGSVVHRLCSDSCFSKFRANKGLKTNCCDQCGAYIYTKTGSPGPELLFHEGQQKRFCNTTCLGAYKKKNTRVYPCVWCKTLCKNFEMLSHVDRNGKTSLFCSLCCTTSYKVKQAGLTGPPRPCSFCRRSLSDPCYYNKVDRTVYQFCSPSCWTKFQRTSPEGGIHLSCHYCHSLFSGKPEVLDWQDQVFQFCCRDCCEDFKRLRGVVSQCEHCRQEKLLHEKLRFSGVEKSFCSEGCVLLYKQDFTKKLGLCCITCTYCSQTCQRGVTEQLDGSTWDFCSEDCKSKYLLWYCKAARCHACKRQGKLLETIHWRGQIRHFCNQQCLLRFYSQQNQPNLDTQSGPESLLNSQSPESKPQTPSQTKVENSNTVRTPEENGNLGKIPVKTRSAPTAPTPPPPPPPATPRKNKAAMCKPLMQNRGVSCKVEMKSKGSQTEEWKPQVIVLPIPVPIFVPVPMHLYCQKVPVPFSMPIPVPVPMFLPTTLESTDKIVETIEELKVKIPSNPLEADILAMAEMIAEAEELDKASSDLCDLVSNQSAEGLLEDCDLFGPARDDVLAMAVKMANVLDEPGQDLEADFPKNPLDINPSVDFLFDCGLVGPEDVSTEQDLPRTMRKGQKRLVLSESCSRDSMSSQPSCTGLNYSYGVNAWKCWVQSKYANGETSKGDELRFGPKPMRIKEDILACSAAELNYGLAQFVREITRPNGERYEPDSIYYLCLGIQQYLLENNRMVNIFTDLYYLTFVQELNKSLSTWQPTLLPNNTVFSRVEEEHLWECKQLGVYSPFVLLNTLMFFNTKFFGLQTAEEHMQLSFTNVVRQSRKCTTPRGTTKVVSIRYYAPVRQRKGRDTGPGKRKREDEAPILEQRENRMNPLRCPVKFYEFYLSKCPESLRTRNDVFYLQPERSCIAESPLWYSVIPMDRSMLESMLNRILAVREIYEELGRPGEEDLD

GFP-tagged ZMYM2 (human) = target: T3, GFP-tagged ZMYM2 (human) (UniProt Q9UBW7); test: as above
T3 sequence: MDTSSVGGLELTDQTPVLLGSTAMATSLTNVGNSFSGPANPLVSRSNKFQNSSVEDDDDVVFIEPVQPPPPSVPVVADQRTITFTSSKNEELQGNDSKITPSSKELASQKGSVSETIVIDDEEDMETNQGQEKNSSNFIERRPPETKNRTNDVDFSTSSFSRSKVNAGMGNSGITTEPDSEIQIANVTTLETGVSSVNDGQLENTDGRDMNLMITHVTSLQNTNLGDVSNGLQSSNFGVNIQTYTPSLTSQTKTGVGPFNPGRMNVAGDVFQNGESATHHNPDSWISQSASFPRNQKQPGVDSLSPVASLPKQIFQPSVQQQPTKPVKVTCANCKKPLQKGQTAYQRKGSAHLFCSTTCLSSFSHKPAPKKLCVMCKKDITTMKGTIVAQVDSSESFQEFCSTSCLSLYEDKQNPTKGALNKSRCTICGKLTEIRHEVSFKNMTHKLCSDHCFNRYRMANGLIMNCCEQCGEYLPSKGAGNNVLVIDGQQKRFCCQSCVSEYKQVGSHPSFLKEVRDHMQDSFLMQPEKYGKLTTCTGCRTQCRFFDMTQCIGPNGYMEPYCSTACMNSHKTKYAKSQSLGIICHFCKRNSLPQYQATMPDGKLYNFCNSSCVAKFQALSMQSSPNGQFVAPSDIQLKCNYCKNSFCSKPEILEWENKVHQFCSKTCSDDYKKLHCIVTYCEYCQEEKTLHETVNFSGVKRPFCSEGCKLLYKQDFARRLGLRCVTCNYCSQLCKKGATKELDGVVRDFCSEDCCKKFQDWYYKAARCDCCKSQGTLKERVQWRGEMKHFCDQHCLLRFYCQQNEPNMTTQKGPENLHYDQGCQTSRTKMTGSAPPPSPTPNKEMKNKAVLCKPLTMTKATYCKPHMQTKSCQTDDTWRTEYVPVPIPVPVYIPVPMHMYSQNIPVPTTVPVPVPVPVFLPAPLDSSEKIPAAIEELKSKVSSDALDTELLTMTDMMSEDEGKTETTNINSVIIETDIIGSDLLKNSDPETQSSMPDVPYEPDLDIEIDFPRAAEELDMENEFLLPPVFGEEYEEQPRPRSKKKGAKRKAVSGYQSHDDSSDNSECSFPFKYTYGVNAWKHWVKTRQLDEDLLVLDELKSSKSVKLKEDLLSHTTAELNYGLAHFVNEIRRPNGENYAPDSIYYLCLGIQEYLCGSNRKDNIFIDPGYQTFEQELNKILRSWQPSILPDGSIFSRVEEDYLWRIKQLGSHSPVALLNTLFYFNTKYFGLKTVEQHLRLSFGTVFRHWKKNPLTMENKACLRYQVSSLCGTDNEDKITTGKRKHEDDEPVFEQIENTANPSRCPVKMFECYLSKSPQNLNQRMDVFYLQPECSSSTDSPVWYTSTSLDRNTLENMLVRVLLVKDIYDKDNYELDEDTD

## DNA-dependent protein kinase DNA-PK (PRKDC) (from UniProt P78527 1-4128) (enzyme)
[1]
  binding: binds

B1: SFB-tagged ZMYM2 (protein, UniProt Q9UBW7 1-1377)
chain: MDTSSVGGLELTDQTPVLLGSTAMATSLTNVGNSFSGPANPLVSRSNKFQNSSVEDDDDVVFIEPVQPPPPSVPVVADQRTITFTSSKNEELQGNDSKITPSSKELASQKGSVSETIVIDDEEDMETNQGQEKNSSNFIERRPPETKNRTNDVDFSTSSFSRSKVNAGMGNSGITTEPDSEIQIANVTTLETGVSSVNDGQLENTDGRDMNLMITHVTSLQNTNLGDVSNGLQSSNFGVNIQTYTPSLTSQTKTGVGPFNPGRMNVAGDVFQNGESATHHNPDSWISQSASFPRNQKQPGVDSLSPVASLPKQIFQPSVQQQPTKPVKVTCANCKKPLQKGQTAYQRKGSAHLFCSTTCLSSFSHKPAPKKLCVMCKKDITTMKGTIVAQVDSSESFQEFCSTSCLSLYEDKQNPTKGALNKSRCTICGKLTEIRHEVSFKNMTHKLCSDHCFNRYRMANGLIMNCCEQCGEYLPSKGAGNNVLVIDGQQKRFCCQSCVSEYKQVGSHPSFLKEVRDHMQDSFLMQPEKYGKLTTCTGCRTQCRFFDMTQCIGPNGYMEPYCSTACMNSHKTKYAKSQSLGIICHFCKRNSLPQYQATMPDGKLYNFCNSSCVAKFQALSMQSSPNGQFVAPSDIQLKCNYCKNSFCSKPEILEWENKVHQFCSKTCSDDYKKLHCIVTYCEYCQEEKTLHETVNFSGVKRPFCSEGCKLLYKQDFARRLGLRCVTCNYCSQLCKKGATKELDGVVRDFCSEDCCKKFQDWYYKAARCDCCKSQGTLKERVQWRGEMKHFCDQHCLLRFYCQQNEPNMTTQKGPENLHYDQGCQTSRTKMTGSAPPPSPTPNKEMKNKAVLCKPLTMTKATYCKPHMQTKSCQTDDTWRTEYVPVPIPVPVYIPVPMHMYSQNIPVPTTVPVPVPVPVFLPAPLDSSEKIPAAIEELKSKVSSDALDTELLTMTDMMSEDEGKTETTNINSVIIETDIIGSDLLKNSDPETQSSMPDVPYEPDLDIEIDFPRAAEELDMENEFLLPPVFGEEYEEQPRPRSKKKGAKRKAVSGYQSHDDSSDNSECSFPFKYTYGVNAWKHWVKTRQLDEDLLVLDELKSSKSVKLKEDLLSHTTAELNYGLAHFVNEIRRPNGENYAPDSIYYLCLGIQEYLCGSNRKDNIFIDPGYQTFEQELNKILRSWQPSILPDGSIFSRVEEDYLWRIKQLGSHSPVALLNTLFYFNTKYFGLKTVEQHLRLSFGTVFRHWKKNPLTMENKACLRYQVSSLCGTDNEDKITTGKRKHEDDEPVFEQIENTANPSRCPVKMFECYLSKSPQNLNQRMDVFYLQPECSSSTDSPVWYTSTSLDRNTLENMLVRVLLVKDIYDKDNYELDEDTD
GFP-tagged ZMYM3 (human)
  binding: binds

B2: SFB-tagged ZMYM3 (protein, UniProt Q14202 1-1370)
chain: MDPSDFPSPFDPLTLPEKPLAGDLPVDMEFGEDLLESQTAPTRGWAPPGPSPSSGALDLLDTPAGLEKDPGVLDGATELLGLGGLLYKAPSPPEVDHGPEGTLAWDAGDQTLEPGPGGQTPEVVPPDPGAGANSCSPEGLLEPLAPDSPITLQSPHIEEEETTSIATARRGSPGQEEELPQGQPQSPNAPPSPSVGETLGDGINSSQTKPGGSSPPAHPSLPGDGLTAKASEKPPERKRSERVRRAEPPKPEVVDSTESIPVSDEDSDAMVDDPNDEDFVPFRPRRSPRMSLRSSVSQRAGRSAVGTKMTCAHCRTPLQKGQTAYQRKGLPQLFCSSSCLTTFSKKPSGKKTCTFCKKEIWNTKDSVVAQTGSGGSFHEFCTSVCLSLYEAQQQRPIPQSGDPADATRCSICQKTGEVLHEVSNGSVVHRLCSDSCFSKFRANKGLKTNCCDQCGAYIYTKTGSPGPELLFHEGQQKRFCNTTCLGAYKKKNTRVYPCVWCKTLCKNFEMLSHVDRNGKTSLFCSLCCTTSYKVKQAGLTGPPRPCSFCRRSLSDPCYYNKVDRTVYQFCSPSCWTKFQRTSPEGGIHLSCHYCHSLFSGKPEVLDWQDQVFQFCCRDCCEDFKRLRGVVSQCEHCRQEKLLHEKLRFSGVEKSFCSEGCVLLYKQDFTKKLGLCCITCTYCSQTCQRGVTEQLDGSTWDFCSEDCKSKYLLWYCKAARCHACKRQGKLLETIHWRGQIRHFCNQQCLLRFYSQQNQPNLDTQSGPESLLNSQSPESKPQTPSQTKVENSNTVRTPEENGNLGKIPVKTRSAPTAPTPPPPPPPATPRKNKAAMCKPLMQNRGVSCKVEMKSKGSQTEEWKPQVIVLPIPVPIFVPVPMHLYCQKVPVPFSMPIPVPVPMFLPTTLESTDKIVETIEELKVKIPSNPLEADILAMAEMIAEAEELDKASSDLCDLVSNQSAEGLLEDCDLFGPARDDVLAMAVKMANVLDEPGQDLEADFPKNPLDINPSVDFLFDCGLVGPEDVSTEQDLPRTMRKGQKRLVLSESCSRDSMSSQPSCTGLNYSYGVNAWKCWVQSKYANGETSKGDELRFGPKPMRIKEDILACSAAELNYGLAQFVREITRPNGERYEPDSIYYLCLGIQQYLLENNRMVNIFTDLYYLTFVQELNKSLSTWQPTLLPNNTVFSRVEEEHLWECKQLGVYSPFVLLNTLMFFNTKFFGLQTAEEHMQLSFTNVVRQSRKCTTPRGTTKVVSIRYYAPVRQRKGRDTGPGKRKREDEAPILEQRENRMNPLRCPVKFYEFYLSKCPESLRTRNDVFYLQPERSCIAESPLWYSVIPMDRSMLESMLNRILAVREIYEELGRPGEEDLD
GFP-tagged ZMYM2 (human)
  binding: binds
